These are yes or no findings as the source states them, for the method shown. Binding seen in cells or lysates may run through a third protein. These calls come from enrichment with a bait or labelling near it, and not all partners need be listed. For some assays here: No binding means not detected with the bait.

Common to all, as to experiment: proximity labelling
Test [1] deals with T1, TurboID-Gmc2 (S. cerevisiae) (UniProt Q06201).
T1 sequence: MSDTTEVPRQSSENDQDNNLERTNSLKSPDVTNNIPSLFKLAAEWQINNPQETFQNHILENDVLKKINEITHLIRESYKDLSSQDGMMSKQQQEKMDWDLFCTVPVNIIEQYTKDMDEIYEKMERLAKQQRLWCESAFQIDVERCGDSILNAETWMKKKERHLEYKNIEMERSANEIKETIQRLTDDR

Test [2] concerns the target T2, Zip3iTurboID (S. cerevisiae) (UniProt Q06032).
T2 sequence: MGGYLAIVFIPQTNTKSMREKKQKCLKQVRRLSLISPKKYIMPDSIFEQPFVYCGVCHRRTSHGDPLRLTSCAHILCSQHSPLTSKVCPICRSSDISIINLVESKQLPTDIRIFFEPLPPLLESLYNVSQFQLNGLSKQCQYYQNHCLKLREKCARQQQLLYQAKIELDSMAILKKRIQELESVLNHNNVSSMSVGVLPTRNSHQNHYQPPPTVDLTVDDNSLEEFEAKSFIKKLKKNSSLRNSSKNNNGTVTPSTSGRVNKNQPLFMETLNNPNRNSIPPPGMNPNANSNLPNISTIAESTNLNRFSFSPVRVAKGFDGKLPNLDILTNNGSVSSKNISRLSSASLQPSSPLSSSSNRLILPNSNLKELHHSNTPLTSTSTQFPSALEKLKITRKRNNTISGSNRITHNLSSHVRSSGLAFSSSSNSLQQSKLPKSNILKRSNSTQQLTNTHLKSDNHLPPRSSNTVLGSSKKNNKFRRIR

Test [3] concerns the target T3, Mlh3-TurboID (S. cerevisiae) (UniProt Q12083).
T3 sequence: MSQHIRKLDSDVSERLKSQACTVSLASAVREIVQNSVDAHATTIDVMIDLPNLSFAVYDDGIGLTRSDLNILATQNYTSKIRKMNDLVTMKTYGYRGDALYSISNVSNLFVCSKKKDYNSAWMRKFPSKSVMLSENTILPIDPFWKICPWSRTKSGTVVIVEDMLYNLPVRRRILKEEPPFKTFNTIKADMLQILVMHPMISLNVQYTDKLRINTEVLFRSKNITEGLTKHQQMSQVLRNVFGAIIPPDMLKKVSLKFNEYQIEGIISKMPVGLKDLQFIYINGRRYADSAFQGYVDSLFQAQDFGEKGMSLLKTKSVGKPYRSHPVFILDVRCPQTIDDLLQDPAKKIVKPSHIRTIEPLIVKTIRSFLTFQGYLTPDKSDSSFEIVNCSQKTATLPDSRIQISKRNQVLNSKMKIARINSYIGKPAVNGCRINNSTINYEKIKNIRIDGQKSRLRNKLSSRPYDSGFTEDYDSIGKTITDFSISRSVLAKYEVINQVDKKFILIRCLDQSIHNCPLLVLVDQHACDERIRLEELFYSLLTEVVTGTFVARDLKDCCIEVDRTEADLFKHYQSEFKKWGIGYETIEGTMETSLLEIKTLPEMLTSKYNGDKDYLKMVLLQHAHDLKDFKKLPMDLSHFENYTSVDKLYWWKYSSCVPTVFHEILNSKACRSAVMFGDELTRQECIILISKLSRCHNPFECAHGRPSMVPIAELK

The target of test [4] is T4, Ecm11-TurboID (S. cerevisiae) (UniProt Q04110).
T4 sequence: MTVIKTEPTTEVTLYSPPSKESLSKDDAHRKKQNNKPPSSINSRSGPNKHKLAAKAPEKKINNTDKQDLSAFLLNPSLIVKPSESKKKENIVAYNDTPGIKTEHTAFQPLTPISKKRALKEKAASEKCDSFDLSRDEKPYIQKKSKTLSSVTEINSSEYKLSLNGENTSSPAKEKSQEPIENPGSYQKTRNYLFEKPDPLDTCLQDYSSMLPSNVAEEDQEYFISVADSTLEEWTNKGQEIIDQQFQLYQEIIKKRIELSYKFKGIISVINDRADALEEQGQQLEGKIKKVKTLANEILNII

B1: Pif1 helicase (protein, UniProt P07271 46-859)
chain: RSNNFIQAQLKHPSILSKEDLDLLSDSDDWEEPDCIQLETEKQEKKIITDIHKEDPVDKKPMRDKNVMNFINKDSPLSWNDMFKPSIIQPPQLISENSFDQSSQKKSRSTGFKNPLRPALKKESSFDELQNNSISQERSLEMINENEKKKMQFGEKIAVLTQRPSFTELQNDQDDSNLNPHNGVKVKIPICLSKEQESIIKLAENGHNIFYTGSAGTGKSILLREMIKVLKGIYGRENVAVTASTGLAACNIGGITIHSFAGIGLGKGDADKLYKKVRRSRKHLRRWENIGALVVDEISMLDAELLDKLDFIARKIRKNHQPFGGIQLIFCGDFFQLPPVSKDPNRPTKFAFESKAWKEGVKMTIMLQKVFRQRGDVKFIDMLNRMRLGNIDDETEREFKKLSRPLPDDEIIPAELYSTRMEVERANNSRLSKLPGQVHIFNAIDGGALEDEELKERLLQNFLAPKELHLKVGAQVMMVKNLDATLVNGSLGKVIEFMDPETYFCYEALTNDPSMPPEKLETWAENPSKLKAAMEREQSDGEESAVASRKSSVKEGFAKSDIGEPVSPLDSSVFDFMKRVKTDDEVVLENIKRKEQLMQTIHQNSAGKRRLPLVRFKASDMSTRMVLVEPEDWAIEDENEKPLVSRVQLPLMLAWSLSIHKSQGQTLPKVKVDLRRVFEKGQAYVALSRAVSREGLQVLNFDRTRIKAHQKVIDFYLTLSSAESAYKQLEADEQVKKRKLDYAPGPKYKAKSKSKSNSPAPISATTQSNNGIAAMLQRHSRKRFQLKKESNSNQVHSLVSDEPRGQDTEDHILE
On to B1, for which the binding result is on record as “no binding” in test [1], “binds” in test [2], “no binding” in test [3] and “binds” in test [4].

B2: Rim4 (protein, UniProt P38741 1-713)
chain: MKTEISTADSLRDPPSNGLKADSELVIREDIDQFLPSEVSSLGSDHQNDGEDSDTDSDNFLQDPEDDVDEESTGRGTVTTTSTSTESRGRPSSCIFVASLAAALSDDELCLSVTENFKKYGDLARVKVLRDNANRPYAFVQYNNDHDAKHALIRAQGTLLNGRRLRCEPAKVNRTLYLKNQQSIDFNEISQICEKFGGLEQIVPDRTDNQYTRRYTYPISSANSWFVQFVYRDDAIRAYANLRTDPNWIIEWAQNINVPKNYNLLHKSKFKSSKYHQNNGIINNDGSNNNDNNNSNNNNREDSRRNGDVIEEECGHVHGSDSEEKLTSDGIYDDEDKDSEITIDKRSIFVGQLDKETTREELNRRFSTHGKIQDINLIFKPTNIFAFIKYETEEAAAAALESENHAIFLNKTMHVQYKEVGGRHNRKFSGKNGGSNFNHHQFFSTRSGKTFTGPELNLAPPPINMYRKMSGGSQQESETMMPYMPMGPMPMGPPPPNAASLSDFDMFPPSYSTFMKGMMPLRRKSMPNSWSSPSSKSVNSENESVNGGDENSELPSEIPESSGRYNAANSFTTYNNSSAGNSNNNNNNNNSNSNKSQYKKRYARRSSYGYNEVPPKPYYFQPYYYHPMQYHMGPMGPLHPSQGSAGNHHPYMMVYPMSPPPPSGLDGSMIPPPINVSQSHAANHGSTHVHANEFISNDTGDINEDNKAYSLDY
Regarding B2, the binding entry in test [1], in test [2], in test [3] and in test [4] was “binds” in each case.

B3: Zip1 (protein, UniProt P31111 1-875)
chain: MSNFFRDSSMGFKPRPNIFAKLRVRDVDSDSSANTVVENSSNCLDVGSSIEGDDTFKKPHKTSTEQELITSMSLSQRNHGYSDDMEIGSPKKTTSTDQYNRILKNDVAAIENDTDEDFEITEVREVSEGVAKETKESHGDPNDSETTLKDSKMHEYTMTNGKAPLHTSINNSSTSSNDVLLEAFTNTQRICSNLKQELQKQQQDNAKLKVRLQSYASNSDKINEKVGKYKSCLETLQERIATLTSHKNNQETKLKDLRQNHQLYQRRISGFKTSIENLNKTINDLGKNKKEADAELMKKGKEIEYLKRELDDCSGQLSEEKIKNSSLIQEMGKNREEMIKSIENFFSEDKAHHLLQFNKFEERVHDLFEKKLQKHFDVAKDTLNVGLRNTTVELSSNTETMLKQQYEDIKENLEQKMSSSKDEMAKTINELSVTQKGLIMGVQEELLTSSGNIQTALVSEMNNTRQELLDDASQTAKNYASLENLVKAYKAEIVQSNEYEERIKHLESERSTLSSQKNQIISSLGTKEAQYEDLVKKLEAKNIEISQISGKEQSLTEKNENLSNELKKVQDQLEKLNNLNITTKSNYENKISSQNEIVKALVSENDTLKQRIQQLVEIKENEQKDHTTKLEAFQKNNEQLQKLNVEVVQLKAHELELEEQNRHLKNCLEKKETGVEESLSDVKTLKQQVIVLKSEKQDITAEKLELQDNLESLEEVTKNLQQKVQSQKRELEQKIKELEEIKNHKRNEPSKKGTQNFTKPSDSPKKNATTSNLFPNNSAAIHSPMKKCPKVDHISKSRINSSKETSKFNDEFDLSSSSNDDLELTNPSPIQIKPVRGKIKKGSNCMKPPISSRKKLLLVEDEDQSLKISKKRRRK
Consider B3, for which the binding result is on record as “no binding” in test [1], “binds” in test [2] and “no binding” in test [3].

For the origin of these results see article doi:10.1101/2023.09.17.558147.
